Results taken from PubChem BioAssay (NCATS).
This list was built around the results that the source calls inconclusive (neither active nor inactive); the mix of calls is not that of the screen. Potencies beside an inconclusive call are fits to weak or partial responses and may not hold up. The source made the active and inactive calls. Calls follow the shape of the dose curve; as a rule, active = well fitted cell-killing curve with a large enough effect; inconclusive = small, poorly fitted or top-dose-only effect, or effect the other way; inactive = no such curve, though single readings can be large or run the other way.

Assay: Quantitative High-Throughput drug screen in 47 multiple myeloma cell lines against the NCATS MIPE library collection: Karpas417_ECACC cell viability assay (AID 1918961)
Conditions: Karpas417 myeloma viability, CellTiter-Glo ATP luminescence, 48 h; viability (% of DMSO): at 45.8 µM (top of the series)
Description: PI: Beverly A. Mock Ph.D.
Laboratory of Cancer Biology and Genetics,
Center for Cancer Research, National Cancer Institute,
National Institute of Health, Bethesda, Maryland
Drug resistance and disease progression are common in multiple myeloma (MM) patients, underscoring the need for new therapeutic combinations. […] We hypothesized that effective combinations would reduce MYC expression and enhance p16 activity. […] These preclinical data identify potentially useful drug combinations for evaluation in drug-resistant MM and reveal potential mechanisms of combined drug sensitivity.
Described herein is the primary MIPE qHTS used to cherrypick compounds. Validated compounds were then further tested for potential synergistic activiy.
[1] Peat TJ, Gaikwad SM, Dubois W, Gyabaah-Kessie N, Zhang S, Gorjifard S, Phyo Z, Andres M, Hughitt VK, Simpson RM, Miller MA, Girvin AT, Taylor A, Williams D, D'Antonio N, Zhang Y, Rajagopalan A, Flietner E, Wilson K, Zhang X, Shinn P, Klumpp-Thomas C, McKnight C, Itkin Z, Chen L, Kazandijian D, Zhang J, Michalowski AM, Simmons JK, Keats J, Thomas CJ, Mock BA. Drug combinations identified by high-throughput screening promote cell cycle transition and upregulate Smad pathways in myeloma. Cancer Lett. 2023 Aug 1;568:216284. doi: 10.1016/j.canlet.2023.216284. Epub 2023 Jun 24. PMID: 37356470; PMCID: PMC10408729.
SEQUENCE No. (e.g., 1, 2, 3, etc.); […] (e.g., Cells, Incubation, Reagent, etc.); VALUE and DESCRIPTION.
1; Cells; 5 uL; white, solid bottom 1536-well Greiner assay plate.
2; Compounds; 23 nL; Kalypsis pin tool (Wako USA) equipped with a 1536-well pin head to transfer to the assay plates.
3; Incubation; 48 hours; 37C incubation.
4; Reagent;5uL; CellTiter Glo (Promega).
5; Detector; 425V; Luminescence; Viewlux PerkinElmer.
NOTES (numbers refer to Sequence numbers above)
1. The cell-based screening methods employed in this study were like those previously published. Briefly, the corresponding myeloma cell lines were screened in 1,536-well plates with 500 cells, 5-uL per well for inhibition of cell viability (assessed by measuring ATP levels with CellTiterGlo).
2. NCATS MIPE 4.0 library of approved and investigational drugs were added using the Kalypsis pin tool. Wells treated with DMSO only for 100% viability and media only wells for 0% viability were used as controls.
3. The assay plates were covered and incubated for 48 hours in a 37C, 5% CO2 incubator with controlled humidity.
4. After 48 hours, CellTilter-GloTM luminescent substrate mix (Promega) reagent was added to the assay plate and plates we incubated for 5 min at room temperature.
5. Signal was measured as median relative luminescence units on a ViewLux (PerkinElmer) multiplate reader.
[1] Heske CM, Davis MI, Baumgart JT, Wilson K, Gormally MV, Chen L, Zhang X, Ceribelli M, Duveau DY, Guha R, Ferrer M, Arnaldez FI, Ji J, Tran HL, Zhang Y, Mendoza A, Helman LJ, Thomas CJ. Matrix Screen Identifies Synergistic Combination of PARP Inhibitors and Nicotinamide Phosphoribosyltransferase (NAMPT) Inhibitors in Ewing Sarcoma. Clin Cancer Res. 2017 Dec 1;23(23):7301-7311. doi: 10.1158/1078-0432.CCR-17-1121. Epub 2017 Sep 12. PMID: 28899971; PMCID: PMC6636827.
Potency is read from the fitted curve at half-maximal effect.

SMILES | Potency | viability (% of DMSO)
O=C(NCCCNc1nc(Nc2cccc(NC(=O)N3CCCC3)c2)ncc1I)c1cccs1 | inconclusive: 0.0042 µM [cytotoxic, full curve, poor fit] | –
COc1cc(O)c2c(c1)C1OC1C[C@H](O)[C@H](O)C(=O)C=CC[C@H](C)OC2=O (stereo not given in full) | active: 0.469 µM | –
Nc1cccc(-c2cc3c(Oc4cccc(O)c4)ncnc3[nH]2)c1 | inconclusive: 10.5 µM [rising, full curve, poor fit] | –
CN1CCC(CNc2ccc3ncc(-c4cccc(OC(F)(F)F)c4)n3n2)CC1 | active: 10.5 µM | –
CC(NCc1ccc2c(c1)nc(NC(=O)c1ccc(-c3cn[nH]c3)s1)n2CC(C)(C)O)C(C)(C)C (stereo not given) | inconclusive: 33.2 µM [rising, partial curve, poor fit] | –
CN(C)CC(C)(C)CNc1nn2c(-c3ccccc3)nnc2cc1C1CCC1 | inconclusive: 0.0042 µM [cytotoxic, full curve, poor fit] | –
CC(C)C[C@H](NC(=O)CNC(=O)c1cc(Cl)ccc1Cl)B(O)O | active: 0.0418 µM | –
Nc1nc(Cl)nc2c1ncn2[C@H]1C[C@H](O)[C@@H](CO)O1 | inconclusive: 0.833 µM [cytotoxic, full curve, poor fit] | –
O=C(Cc1ccc(-c2ccc(OCCN3CCOCC3)cc2)cn1)NCc1ccccc1 | inconclusive: 2.64 µM [cytotoxic, full curve, poor fit] | –
CCN(CC)CCNC(=O)c1c(C)[nH]c(C=C2C(=O)Nc3ccc(F)cc32)c1C | active: 0.136 µM | –
O=C(c1ccc(Nc2nccc(-c3cc4ccccc4s3)n2)cc1)N1CCC(N2CCCC2)CC1 | active: 2.09 µM | –
CC1(C)CCC(c2ccc(Cl)cc2)=C(CN2CCN(c3ccc(C(=O)NS(=O)(=O)c4ccc(N[C@H](CCN5CCOCC5)CSc5ccccc5)c(S(=O)(=O)C(F)(F)F)c4)cc3)CC2)C1 | inconclusive: 33.2 µM [rising, partial curve, poor fit] | –
O=c1[nH]nc(Sc2ncc([N+](=O)[O-])s2)n1-c1ccc2c(c1)OCCO2 | inconclusive: 3.72 µM [cytotoxic, partial curve, poor fit] | –
CCN(c1ccccc1)c1cc(NC)[n+](C)c(C)n1 | inconclusive: 11.8 µM [cytotoxic, single point] | –
c1cc(-c2cnn3cc(-c4ccc(OCCN5CCCCC5)cc4)cnc23)ccn1 | inconclusive: 0.0105 µM [cytotoxic, full curve, poor fit] | –
CC(C)Cn1cnc2c(N)nc3ccccc3c21 | inconclusive: 5.26 µM [cytotoxic, partial curve, poor fit] | –
C=CC(=O)Nc1ccc2ncnc(Nc3ccc(OCc4cccc(F)c4)c(Cl)c3)c2c1 | inconclusive: 1.18 µM [cytotoxic, full curve, poor fit] | –
COc1cc(C)c(Sc2cnc(NC(=O)c3ccc(CNC(C)C(C)(C)C)cc3)s2)cc1C(=O)N1CCN(C(C)=O)CC1 (stereo not given) | inconclusive: 1.87 µM [cytotoxic, full curve, poor fit] | –
Cn1cc(-c2cnn3c(N)c(Br)c([C@H]4CCCNC4)nc23)cn1 | active: 0.132 µM | –
Cc1c(NC(=O)OC[C@@H]2COCCN2)cn2ncnc(Nc3ccc4c(cnn4Cc4cccc(F)c4)c3)c12 | inconclusive: 0.0015 µM [cytotoxic, full curve, poor fit] | –

SMILES | Potency | viability (% of DMSO)
Nc1ccn([C@H]2CC[C@@H](CO)O2)c(=O)n1 | inactive | –
C[C@@H]1C[C@H]2[C@@H]3CCC4=CC(=O)C=C[C@]4(C)[C@@]3(Cl)[C@@H](O)C[C@]2(C)[C@@]1(OC(=O)c1ccco1)C(=O)CCl | active: 8.33 µM | –
O=C(Nc1cc(C(F)(F)F)cc(C(F)(F)F)c1)c1cc(Cl)ccc1O | active: 0.59 µM | –
Cc1cccc(C=NNc2cc(N3CCOCC3)nc(OCCc3ccccn3)n2)c1 | inconclusive: 26.4 µM [rising, partial curve, poor fit] | –
CCCCOc1ccc(CC(=O)NO)cc1 | inconclusive: 11.8 µM [cytotoxic, partial curve, poor fit] | –
COc1cc(C(=O)NS(=O)(=O)c2ccccc2C)ccc1Cc1cn(C)c2ccc(NC(=O)OC3CCCC3)cc12 | inactive | –
COc1cc(C(C)C)c2c(c1)S(=O)(=O)N(COc1cc(=O)n3cccc(OCCN4CCCCC4)c3n1)C2=O | inconclusive: 13.2 µM [cytotoxic, partial curve, poor fit] | –
CC(C)c1ccc(Cn2ccc3c4c(N)nc(NC5CC5)nc4ccc32)cc1 | active: 10.5 µM | –
COc1ccc(COc2cc3oc(=O)c4cc(C(C)O)ccc4c3cc2OC)cc1 (stereo not given) | inconclusive: 5.26 µM [cytotoxic, partial curve, poor fit] | –
CC(=O)NCC(=O)N1[C@H]2CC[C@H]1c1cc(Nc3ncc(C(F)(F)F)c(NC4CCC4)n3)ccc12 | active: 0.118 µM | –
CN(C)CCCN=c1c2ccccc2n(C)c2[nH]c(=O)n(C)c(=O)c12 | inconclusive: 11.8 µM [rising, partial curve] | –
Nc1nc(N)c(N=O)c(OCC2CCCCC2)n1 | active: 2.64 µM | –
CCOC(=O)[C@@H](N)Cc1ccc(-c2cc(O[C@H](c3ccc(Cl)cc3-n3ccc(C)n3)C(F)(F)F)nc(N)n2)cc1 | active: 9.35 µM | –
COc1ccc(C=Cc2cc(OC)c(OC)c(OC)c2)cc1O | – | inconclusive: 45.4% [cytotoxic]
COc1cc2nccc(Oc3ccc(NC(=O)NC4CC4)c(Cl)c3)c2cc1C(N)=O | inactive | –
Cn1c2ccccc2c2c3c(c4c5ccccc5n(CCC#N)c4c21)CNC3=O | active: 0.148 µM | –
Cc1[nH]c2ccccc2c1CCNCc1ccc(C=CC(=O)NO)cc1 | inconclusive: 0.0935 µM [cytotoxic, full curve, poor fit] | –
S=C(NCc1ccc2c(c1)OCO2)N1CCN(c2ncnc3c2oc2ccccc23)CC1 | active: 4.29 µM | –
COc1cccc2c1C(=O)c1c(O)c3c(c(O)c1C2=O)C[C@@](O)(C(=O)CO)C[C@@H]3O[C@H]1C[C@H](N)[C@H](OC2CCCCO2)[C@H](C)O1 (stereo not given in full) | inactive | –
CCC[C@H](NC(=O)C(C#N)=Cc1cccc(Br)n1)c1ccccc1 | active: 5.9 µM | –

For convenience, two of the compounds above:
SMILES | Potency | viability (% of DMSO)
O=C(Nc1cc(C(F)(F)F)cc(C(F)(F)F)c1)c1cc(Cl)ccc1O | active: 0.59 µM | –
Cc1cccc(C=NNc2cc(N3CCOCC3)nc(OCCc3ccccn3)n2)c1 | inconclusive: 26.4 µM [rising, partial curve, poor fit] | –
